No constants are given. Whether binding was seen depends on the method and setting. Binding seen in cells or lysates may run through a third protein. A yes stands for co-enrichment or nearness to the bait. Other partners may have been found.

Sequences of proteins named here, by UniProt entry; tags and fusion partners are left off.
UniProt P32569: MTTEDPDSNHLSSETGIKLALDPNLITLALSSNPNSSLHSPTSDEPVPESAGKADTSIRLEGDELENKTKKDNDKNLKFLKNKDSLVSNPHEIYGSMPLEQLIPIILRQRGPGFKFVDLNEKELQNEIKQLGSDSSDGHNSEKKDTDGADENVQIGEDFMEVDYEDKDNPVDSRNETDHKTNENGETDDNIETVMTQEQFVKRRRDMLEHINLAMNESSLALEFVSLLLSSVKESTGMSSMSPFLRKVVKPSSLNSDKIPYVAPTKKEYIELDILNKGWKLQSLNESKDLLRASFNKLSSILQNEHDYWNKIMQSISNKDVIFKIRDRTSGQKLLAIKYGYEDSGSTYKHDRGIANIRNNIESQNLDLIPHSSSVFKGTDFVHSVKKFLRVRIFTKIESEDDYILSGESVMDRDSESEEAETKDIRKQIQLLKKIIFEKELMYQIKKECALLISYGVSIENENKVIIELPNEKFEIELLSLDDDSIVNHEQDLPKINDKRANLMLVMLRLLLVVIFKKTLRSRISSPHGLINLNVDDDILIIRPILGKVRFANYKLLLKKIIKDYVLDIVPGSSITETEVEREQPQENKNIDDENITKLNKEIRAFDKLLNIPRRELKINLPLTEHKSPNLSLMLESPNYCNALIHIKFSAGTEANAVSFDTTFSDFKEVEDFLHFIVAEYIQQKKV

The assay has as its target Med17-HA (S. cerevisiae (endogenous in S288c)) (UniProt P32569). Description: affinity purification with mass spectrometry; CoIP of Med17-HA on anti-HA magnetic beads from cryoground yeast lysate, 2 h at 4 °C; 20 mM HEPES pH 7.5, 300 mM KOAc, 10% glycerol, 0.01% NP-40, 6 mM MnSO4, 1 mM DTT, Cyanase nuclease; parallel control CoIP from 15N-labelled wild type cells, mixing after purification (MAP); GeLC-MS/MS, three biological replicates.

B1: Rpc2 (protein, UniProt P22276 1-1149)
chain: MVAATKRRKTHIHKHVKDEAFDDLLKPVYKGKKLTDEINTAQDKWHLLPAFLKVKGLVKQHLDSFNYFVDTDLKKIIKANQLILSDVDPEFYLKYVDIRVGKKSSSSTKDYLTPPHECRLRDMTYSAPIYVDIEYTRGRNIIMHKDVEIGRMPIMLRSNKCILYDADESKMAKLNECPLDPGGYFIVNGTEKVILVQEQLSKNRIIVEADEKKGIVQASVTSSTHERKSKTYVITKNGKIYLKHNSIAEEIPIAIVLKACGILSDLEIMQLVCGNDSSYQDIFAVNLEESSKLDIYTQQQALEYIGAKVKTMRRQKLTILQEGIEAIATTVIAHLTVEALDFREKALYIAMMTRRVVMAMYNPKMIDDRDYVGNKRLELAGQLISLLFEDLFKKFNNDFKLSIDKVLKKPNRAMEYDALLSINVHSNNITSGLNRAISTGNWSLKRFKMERAGVTHVLSRLSYISALGMMTRISSQFEKSRKVSGPRALQPSQFGMLCTADTPEGEACGLVKNLALMTHITTDDEEEPIKKLCYVLGVEDITLIDSASLHLNYGVYLNGTLIGSIRFPTKFVTQFRHLRRTGKVSEFISIYSNSHQMAVHIATDGGRICRPLIIVSDGQSRVKDIHLRKLLDGELDFDDFLKLGLVEYLDVNEENDSYIALYEKDIVPSMTHLEIEPFTILGAVAGLIPYPHHNQSPRNTYQCAMGKQAIGAIAYNQFKRIDTLLYLMTYPQQPMVKTKTIELIDYDKLPAGQNATVAVMSYSGYDIEDALVLNKSSIDRGFGRCETRRKTTTVLKRYANHTQDIIGGMRVDENGDPIWQHQSLGPDGLGEVGMKVQSGQIYINKSVPTNSADAPNPNNVNVQTQYREAPVIYRGPEPSHIDQVMMSVSDNDQALIKVLLRQNRRPELGDKFSSRHGQKGVCGIIVKQEDMPFNDQGIVPDIIMNPHGFPSRMTVGKMIELISGKAGVLNGTLEYGTCFGGSKLEDMSKILVDQGFNYSGKDMLYSGITGECLQAYIFFGPIYYQKLKHMVLDKMHARARGPRAVLTRQPTEGRSRDGGLRLGEMERDCVIAYGASQLLLERLMISSDAFEVDVCDKCGLMGYSGWCTTCKSAENIIKMTIPYAAKLLFQELLSMNIAPRLRLEDIFQQ
For the molecule B1, the binding entry is “binds”.

B2: Tfc3 (protein, UniProt P34111 1-1160)
chain: MVLTIYPDELVQIVSDKIASNKGKITLNQLWDISGKYFDLSDKKVKQFVLSCVILKKDIEVYCDGAITTKNVTDIIGDANHSYSVGITEDSLWTLLTGYTKKESTIGNSAFELLLEVAKSGEKGINTMDLAQVTGQDPRSVTGRIKKINHLLTSSQLIYKGHVVKQLKLKKFSHDGVDSNPYINIRDHLATIVEVVKRSKNGIRQIIDLKRELKFDKEKRLSKAFIAAIAWLDEKEYLKKVLVVSPKNPAIKIRCVKYVKDIPDSKGSPSFEYDSNSADEDSVSDSKAAFEDEDLVEGLDNFNATDLLQNQGLVMEEKEDAVKNEVLLNRFYPLQNQTYDIADKSGLKGISTMDVVNRITGKEFQRAFTKSSEYYLESVDKQKENTGGYRLFRIYDFEGKKKFFRLFTAQNFQKLTNAEDEISVPKGFDELGKSRTDLKTLNEDNFVALNNTVRFTTDSDGQDIFFWHGELKIPPNSKKTPNKNKRKRQVKNSTNASVAGNISNPKRIKLEQHVSTAQEPKSAEDSPSSNGGTVVKGKVVNFGGFSARSLRSLQRQRAILKVMNTIGGVAYLREQFYESVSKYMGSTTTLDKKTVRGDVDLMVESEKLGARTEPVSGRKIIFLPTVGEDAIQRYILKEKDSKKATFTDVIHDTEIYFFDQTEKNRFHRGKKSVERIRKFQNRQKNAKIKASDDAISKKSTSVNVSDGKIKRRDKKVSAGRTTVVVENTKEDKTVYHAGTKDGVQALIRAVVVTKSIKNEIMWDKITKLFPNNSLDNLKKKWTARRVRMGHSGWRAYVDKWKKMLVLAIKSEKISLRDVEELDLIKLLDIWTSFDEKEIKRPLFLYKNYEENRKKFTLVRDDTLTHSGNDLAMSSMIQREISSLKKTYTRKISASTKDLSKSQSDDYIRTVIRSILIESPSTTRNEIEALKNVGNESIDNVIMDMAKEKQIYLHGSKLECTDTLPDILENRGNYKDFGVAFQYRCKVNELLEAGNAIVINQEPSDISSWVLIDLISGELLNMDVIPMVRNVRPLTYTSRRFEIRTLTPPLIIYANSQTKLNTARKSAVKVPLGKPFSRLWVNGSGSIRPNIWKQVVTMVVNEIIFHPGITLSRLQSRCREVLSLHEISEICKWLLERQVLITTDFDGYWVNHNWYSIYEST
For the molecule B2, the binding result is on record as “binds”.

B3: Rpc1 (protein, UniProt P04051 1-1460)
chain: MKEVVVSETPKRIKGLEFSALSAADIVAQSEVEVSTRDLFDLEKDRAPKANGALDPKMGVSSSSLECATCHGNLASCHGHFGHLKLALPVFHIGYFKATIQILQGICKNCSAILLSETDKRQFLHELRRPGVDNLRRMGILKKILDQCKKQRRCLHCGALNGVVKKAAAGAGSAALKIIHDTFRWVGKKSAPEKDIWVGEWKEVLAHNPELERYVKRCMDDLNPLKTLNLFKQIKSADCELLGIDATVPSGRPETYIWRYLPAPPVCIRPSVMMQDSPASNEDDLTVKLTEIVWTSSLIKAGLDKGISINNMMEHWDYLQLTVAMYINSDSVNPAMLPGSSNGGGKVKPIRGFCQRLKGKQGRFRGNLSGKRVDFSGRTVISPDPNLSIDEVAVPDRVAKVLTYPEKVTRYNRHKLQELIVNGPNVHPGANYLLKRNEDARRNLRYGDRMKLAKNLQIGDVVERHLEDGDVVLFNRQPSLHRLSILSHYAKIRPWRTFRLNECVCTPYNADFDGDEMNLHVPQTEEARAEAINLMGVKNNLLTPKSGEPIIAATQDFITGSYLISHKDSFYDRATLTQLLSMMSDGIEHFDIPPPAIMKPYYLWTGKQVFSLLIKPNHNSPVVINLDAKNKVFVPPKSKSLPNEMSQNDGFVIIRGSQILSGVMDKSVLGDGKKHSVFYTILRDYGPQEAANAMNRMAKLCARFLGNRGFSIGINDVTPADDLKQKKEELVEIAYHKCDELITLFNKGELETQPGCNEEQTLEAKIGGLLSKVREEVGDVCINELDNWNAPLIMATCGSKGSTLNVSQMVAVVGQQIISGNRVPDGFQDRSLPHFPKNSKTPQSKGFVRNSFFSGLSPPEFLFHAISGREGLVDTAVKTAETGYMSRRLMKSLEDLSCQYDNTVRTSANGIVQFTYGGDGLDPLEMEGNAQPVNFNRSWDHAYNITFNNQDKGLLPYAIMETANEILGPLEERLVRYDNSGCLVKREDLNKAEYVDQYDAERDFYHSLREYINGKATALANLRKSRGMLGLLEPPAKELQGIDPDETVPDNVKTSVSQLYRISEKSVRKFLEIALFKYRKARLEPGTAIGAIGAQSIGEPGTQMTLKTFHFAGVASMNVTLGVPRIKEIINASKVISTPIINAVLVNDNDERAARVVKGRVEKTLLSDVAFYVQDVYKDNLSFIQVRIDLGTIDKLQLELTIEDIAVAITRASKLKIQASDVNIIGKDRIAINVFPEGYKAKSISTSAKEPSENDVFYRMQQLRRALPDVVVKGLPDISRAVINIRDDGKRELLVEGYGLRDVMCTDGVIGSRTTTNHVLEVFSVLGIEAARYSIIREINYTMSNHGMSVDPRHIQLLGDVMTYKGEVLGITRFGLSKMRDSVLQLASFEKTTDHLFDAAFYMKKDAVEGVSECIILGQTMSIGTGSFKVVKGTNISEKDLVPKRCLFESLSNEAALKAN
On to B3, for which the binding entry is reported as “binds”.

B4: Tfc1 (protein, UniProt P32367 1-649)
chain: MPVEEPLATLSSIPDSSADQAPPLIADEFTLDLPRIPSLELPLNVSTKHSSIQKAIKMCGGIEKVKEAFKEHGPIESQHGLQLYLNDDTDSDGSKSYFNEHPVIGKRVPFRDESVILKVTMPKGTLSKNNNSVKDSIKSLKDSNKLRVTPVSIVDNTIKFREMSDFQIKLDNVPSAREFKSSFGSLEWNNFKSFVNSVPDNDSQPQENIGNLILDRSVKIPSTDFQLPPPPKLSMVGFPLLYKYKANPFAKKKKNGVTEVKGTYIKNYQLFVHDLSDKTVIPSQAHEQVLYDFEVAKKTKVYPGTKSDSKFYESLEECLKILRELFARRPIWVKRHLDGIVPKKIHHTMKIALALISYRFTMGPWRNTYIKFGIDPRSSVEYAQYQTEYFKIERKLLSSPIVKKNVPKPPPLVFESDTPGGIDSRFKFDGKRIPWYLMLQIDLLIGEPNIAEVFHNVEYLDKANELTGWFKELDLVKIRRIVKYELGCMVQGNYEYNKYKLKYFKTMLFVKESMVPENKNSEEGMGVNTNKDADGDINMDAGSQMSSNAIEEDKGIAAGDDFDDNGAITEEPDDAALENEEMDTDQNLKVPASIDDDVDDVDADEEEQESFDVKTASFQDIINKIAKLDPKTAETMKSELKGFVDEVDL
Turning to B4, the binding entry is “binds”.

B5: Tf3b (protein, UniProt P29056 1-596)
chain: MPVCKNCHGTEFERDLSNANNDLVCKACGVVSEDNPIVSEVTFGETSAGAAVVQGSFIGAGQSHAAFGGSSALESREATLNNARRKLRAVSYALHIPEYITDAAFQWYKLALANNFVQGRRSQNVIASCLYVACRKEKTHHMLIDFSSRLQVSVYSIGATFLKMVKKLHITELPLADPSLFIQHFAEKLDLADKKIKVVKDAVKLAQRMSKDWMFEGRRPAGIAGACILLACRMNNLRRTHTEIVAVSHVAEETLQQRLNEFKNTKAAKLSVQKFRENDVEDGEARPPSFVKNRKKERKIKDSLDKEEMFQTSEEALNKNPILTQVLGEQELSSKEVLFYLKQFSERRARVVERIKATNGIDGENIYHEGSENETRKRKLSEVSIQNEHVEGEDKETEGTEEKVKKVKTKTSEEKKENESGHFQDAIDGYSLETDPYCPRNLHLLPTTDTYLSKVSDDPDNLEDVDDEELNAHLLNEEASKLKERIWIGLNADFLLEQESKRLKQEADIATGNTSVKKKRTRRRNNTRSDEPTKTVDAAAAIGLMSDLQDKSGLHAALKAAEESGDFTTADSVKNMLQKASFSKKINYDAIDGLFR
As for B5, the binding entry is reported as “binds”.
